Publication PMC6692315
Results are given in words; binding and its absence hold for the method and conditions named. Binding seen in cells or lysates may run through a third protein. Binding can be weak; no strength is given. Sequences can lack the tags named with a protein. Blank lines part the entries; values can stand above or below the molecule they belong to.

Assays:
[1] = target: T1, Human 3XFLAG:GEN1 (human) (UniProt Q17RS7); assay: co-IP; reciprocal: FLAG-tagged protein immunoprecipitated with magnetic FLAG-M2 beads (Sigma), 2 hours at 4 degrees Celsius, from transfected HEK-293T lysate; 0.5% CHAPS buffer (10 mM Tris/Cl pH 7.5, 150 mM NaCl, 0.5 mM EDTA); three washes; Western blot
T1 sequence: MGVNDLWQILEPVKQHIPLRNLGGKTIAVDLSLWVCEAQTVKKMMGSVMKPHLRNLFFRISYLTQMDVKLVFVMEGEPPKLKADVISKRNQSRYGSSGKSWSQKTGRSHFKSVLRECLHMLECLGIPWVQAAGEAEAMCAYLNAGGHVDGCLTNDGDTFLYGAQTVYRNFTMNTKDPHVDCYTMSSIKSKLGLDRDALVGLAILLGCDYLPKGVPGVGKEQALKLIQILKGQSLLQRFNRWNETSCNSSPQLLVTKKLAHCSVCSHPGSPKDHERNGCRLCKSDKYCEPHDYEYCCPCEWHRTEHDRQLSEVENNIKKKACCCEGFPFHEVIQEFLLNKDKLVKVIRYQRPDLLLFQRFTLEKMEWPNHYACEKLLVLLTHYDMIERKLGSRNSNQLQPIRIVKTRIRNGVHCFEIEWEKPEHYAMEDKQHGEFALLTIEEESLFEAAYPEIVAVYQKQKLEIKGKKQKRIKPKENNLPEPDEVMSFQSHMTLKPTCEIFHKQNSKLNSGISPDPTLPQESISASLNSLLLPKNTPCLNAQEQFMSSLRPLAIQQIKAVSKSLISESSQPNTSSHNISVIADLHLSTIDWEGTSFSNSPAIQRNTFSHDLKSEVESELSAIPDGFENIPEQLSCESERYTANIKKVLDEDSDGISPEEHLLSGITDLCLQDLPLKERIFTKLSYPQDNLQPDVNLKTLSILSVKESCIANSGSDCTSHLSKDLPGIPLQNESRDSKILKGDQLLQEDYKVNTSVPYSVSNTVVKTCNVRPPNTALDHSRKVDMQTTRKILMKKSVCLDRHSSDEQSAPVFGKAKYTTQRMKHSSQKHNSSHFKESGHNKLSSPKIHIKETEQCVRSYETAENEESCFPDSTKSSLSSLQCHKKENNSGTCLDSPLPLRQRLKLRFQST

[2] = target: T2, C. elegans GEN-1-3XFLAG (C. elegans) (UniProt Q22418); assay: as above
T2 sequence: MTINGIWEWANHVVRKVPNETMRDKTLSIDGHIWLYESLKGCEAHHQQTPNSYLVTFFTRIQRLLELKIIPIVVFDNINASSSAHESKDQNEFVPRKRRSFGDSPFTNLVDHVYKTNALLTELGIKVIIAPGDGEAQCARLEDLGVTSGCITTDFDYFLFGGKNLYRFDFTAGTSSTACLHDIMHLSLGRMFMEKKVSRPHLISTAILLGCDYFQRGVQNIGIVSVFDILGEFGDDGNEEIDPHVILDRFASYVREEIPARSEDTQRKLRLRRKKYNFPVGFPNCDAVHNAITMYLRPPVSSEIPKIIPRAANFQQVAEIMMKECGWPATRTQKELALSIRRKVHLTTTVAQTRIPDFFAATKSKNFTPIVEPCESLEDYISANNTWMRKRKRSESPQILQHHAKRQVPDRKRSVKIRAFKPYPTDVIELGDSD

[3] = target: GFP-WDR23 isoform II (human) (human); assay: co-IP; GFP-tagged protein immunoprecipitated with GFP trap magnetic agarose beads (Chromotek) from transfected HEK-293T lysate; 0.5% CHAPS buffer (10 mM Tris/Cl pH 7.5, 150 mM NaCl, 0.5 mM EDTA); Western blot
[4] = target: GFP-WDR-23B (C. elegans WDR-23 isoform B) (C. elegans); assay: as above

binding [1]: binds
Molecule: GFP-WDR23 isoform II (human)

binding [2]: binds
Molecule: GFP-WDR-23B (C. elegans WDR-23 isoform B)

binding [3]: binds
B1: Human 3XFLAG:GEN1 (protein, UniProt Q17RS7 1-908)
chain: MGVNDLWQILEPVKQHIPLRNLGGKTIAVDLSLWVCEAQTVKKMMGSVMKPHLRNLFFRISYLTQMDVKLVFVMEGEPPKLKADVISKRNQSRYGSSGKSWSQKTGRSHFKSVLRECLHMLECLGIPWVQAAGEAEAMCAYLNAGGHVDGCLTNDGDTFLYGAQTVYRNFTMNTKDPHVDCYTMSSIKSKLGLDRDALVGLAILLGCDYLPKGVPGVGKEQALKLIQILKGQSLLQRFNRWNETSCNSSPQLLVTKKLAHCSVCSHPGSPKDHERNGCRLCKSDKYCEPHDYEYCCPCEWHRTEHDRQLSEVENNIKKKACCCEGFPFHEVIQEFLLNKDKLVKVIRYQRPDLLLFQRFTLEKMEWPNHYACEKLLVLLTHYDMIERKLGSRNSNQLQPIRIVKTRIRNGVHCFEIEWEKPEHYAMEDKQHGEFALLTIEEESLFEAAYPEIVAVYQKQKLEIKGKKQKRIKPKENNLPEPDEVMSFQSHMTLKPTCEIFHKQNSKLNSGISPDPTLPQESISASLNSLLLPKNTPCLNAQEQFMSSLRPLAIQQIKAVSKSLISESSQPNTSSHNISVIADLHLSTIDWEGTSFSNSPAIQRNTFSHDLKSEVESELSAIPDGFENIPEQLSCESERYTANIKKVLDEDSDGISPEEHLLSGITDLCLQDLPLKERIFTKLSYPQDNLQPDVNLKTLSILSVKESCIANSGSDCTSHLSKDLPGIPLQNESRDSKILKGDQLLQEDYKVNTSVPYSVSNTVVKTCNVRPPNTALDHSRKVDMQTTRKILMKKSVCLDRHSSDEQSAPVFGKAKYTTQRMKHSSQKHNSSHFKESGHNKLSSPKIHIKETEQCVRSYETAENEESCFPDSTKSSLSSLQCHKKENNSGTCLDSPLPLRQRLKLRFQST

binding [4]: binds
B2: C. elegans GEN-1-3XFLAG (protein, UniProt Q22418 1-434)
chain: MTINGIWEWANHVVRKVPNETMRDKTLSIDGHIWLYESLKGCEAHHQQTPNSYLVTFFTRIQRLLELKIIPIVVFDNINASSSAHESKDQNEFVPRKRRSFGDSPFTNLVDHVYKTNALLTELGIKVIIAPGDGEAQCARLEDLGVTSGCITTDFDYFLFGGKNLYRFDFTAGTSSTACLHDIMHLSLGRMFMEKKVSRPHLISTAILLGCDYFQRGVQNIGIVSVFDILGEFGDDGNEEIDPHVILDRFASYVREEIPARSEDTQRKLRLRRKKYNFPVGFPNCDAVHNAITMYLRPPVSSEIPKIIPRAANFQQVAEIMMKECGWPATRTQKELALSIRRKVHLTTTVAQTRIPDFFAATKSKNFTPIVEPCESLEDYISANNTWMRKRKRSESPQILQHHAKRQVPDRKRSVKIRAFKPYPTDVIELGDSD
